In publication PMC6438731, “Extrasynaptic δ‐GABAA receptors are high‐affinity muscimol receptors” (Journal of Neurochemistry, 2019):
Where “and” joins values, the source holds several entries; their conditions need not be identical. Identical values can stand only once.

What was measured:
[1] = tested on: forebrain membranes of δKO mice (non‐δ‐GABAARs); assay: [^3H]muscimol binding kinetics, δKO forebrain membranes; parameters: species or system mouse; conditions: 22°C
Description: (§1) WT and δKO forebrain and cerebellar membranes were prepared using a modification of the method of Squires and Saederup (2000) essentially as described by Uusi‐Oukari et al. (2014). […] forebrain along with midbrain region was homogenized into 10 mM Tris‐HCl, pH 8.0 buffer containing 2 mM EDTA, using an Ultra‐Turrax T25 (Janke & Kunkel IKA labortechnik) for 20 s at 9500 rpm. The homogenates were centrifuged at 20 000 g for 10 min at +4°C and the resulting pellets were washed three times by resuspension and re‐centrifugation with 10 mM Tris‐HCl, pH 8.5 buffer containing 0.2 M NaCl, and 5 mM EDTA. The resulting pellets were then suspended in ice‐cold H2O and centrifuged. […]
(§2) The binding of [^3H]muscimol (5 nM) was measured in assay buffer at 22°C in a total volume of 300 μL. […] Air‐dried filters were immersed in 3 mL of Optiphase HiSafe 3 scintillation fluid (Wallac, Turku, Finland) and radioactivity determined in a Wallac model 1410 liquid scintillation counter (Wallac, Turku, Finland). […]
(§3) The tubes were mixed and incubations at 22°C were terminated at various time points (30 s – 30 min) as described above. Dissociation of [^3H]muscimol from recombinant receptors in HEK cell membranes was also measured at 0–4°C (on ice) to evaluate how fast [^3H]muscimol dissociates from receptors while washing the filter with ice‐cold assay buffer during filtration.

[2] = tested on: cerebellar membranes of δKO mice (non‐δ‐GABAARs); assay: [^3H]muscimol binding kinetics, δKO cerebellar membranes; parameters: species or system mouse; conditions: 22°C
Description: as §1, §2, §3

## NCc1cc(=O)[nH]o1 [[^3H]muscimol] [[Methylene‐^3H]muscimol]
[1]
  reduction of 5 nM [^3H]muscimol binding in δKO compared to WT mice: > 50% and ~ 60%
[2]
  reduction of 5 nM [^3H]muscimol binding in δKO compared to WT mice: > 50% and ~ 60%
